Test results taken from US20090123940A1, “MOLECULES INVOLVED IN SYNAPTOGENESIS AND USES THEREFOR” (THE JOHNS HOPKINS UNIVERSITY, priority 2007, published 2009).
Results are given in words; binding and its absence hold for the method and conditions named. For some assays here: In cells and extracts the contact can be indirect. Some results given as binding are weak or reduced against the parent protein; the word gives no strength. For some assays here: Tags and fused reporters may be left off the sequences shown.

Protein sequences, listed by entry. Tags and fused reporters are not part of them. Lines headed by an entry give the natural chain unless they say otherwise; changes in a name come on top. Chains listed by the source or under a name are the forms on record and can include a tag or linker. Residues count along the entry.
UniProt P19492, residues 23-888: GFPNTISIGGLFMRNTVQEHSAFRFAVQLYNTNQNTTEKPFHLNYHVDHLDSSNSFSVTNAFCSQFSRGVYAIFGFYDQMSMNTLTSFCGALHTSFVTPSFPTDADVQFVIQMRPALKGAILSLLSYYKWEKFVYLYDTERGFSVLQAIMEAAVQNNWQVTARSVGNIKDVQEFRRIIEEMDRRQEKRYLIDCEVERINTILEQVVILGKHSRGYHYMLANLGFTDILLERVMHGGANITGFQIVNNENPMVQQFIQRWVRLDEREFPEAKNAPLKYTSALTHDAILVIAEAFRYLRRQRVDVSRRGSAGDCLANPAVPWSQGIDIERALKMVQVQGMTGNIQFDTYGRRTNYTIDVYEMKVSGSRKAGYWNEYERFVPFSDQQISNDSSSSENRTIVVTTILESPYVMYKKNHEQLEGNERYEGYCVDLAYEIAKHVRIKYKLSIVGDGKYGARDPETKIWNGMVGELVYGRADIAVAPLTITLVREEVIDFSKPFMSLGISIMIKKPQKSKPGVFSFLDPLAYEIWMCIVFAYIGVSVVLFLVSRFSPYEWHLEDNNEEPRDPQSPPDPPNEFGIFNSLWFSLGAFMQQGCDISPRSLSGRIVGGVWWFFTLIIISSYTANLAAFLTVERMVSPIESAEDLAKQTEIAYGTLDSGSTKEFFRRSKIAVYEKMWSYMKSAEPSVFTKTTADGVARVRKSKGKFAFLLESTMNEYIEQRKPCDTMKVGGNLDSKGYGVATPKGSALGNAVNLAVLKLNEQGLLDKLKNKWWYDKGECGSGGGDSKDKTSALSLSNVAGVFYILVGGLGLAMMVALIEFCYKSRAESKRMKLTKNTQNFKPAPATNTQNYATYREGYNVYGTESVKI
UniProt P19491, residues 22-883: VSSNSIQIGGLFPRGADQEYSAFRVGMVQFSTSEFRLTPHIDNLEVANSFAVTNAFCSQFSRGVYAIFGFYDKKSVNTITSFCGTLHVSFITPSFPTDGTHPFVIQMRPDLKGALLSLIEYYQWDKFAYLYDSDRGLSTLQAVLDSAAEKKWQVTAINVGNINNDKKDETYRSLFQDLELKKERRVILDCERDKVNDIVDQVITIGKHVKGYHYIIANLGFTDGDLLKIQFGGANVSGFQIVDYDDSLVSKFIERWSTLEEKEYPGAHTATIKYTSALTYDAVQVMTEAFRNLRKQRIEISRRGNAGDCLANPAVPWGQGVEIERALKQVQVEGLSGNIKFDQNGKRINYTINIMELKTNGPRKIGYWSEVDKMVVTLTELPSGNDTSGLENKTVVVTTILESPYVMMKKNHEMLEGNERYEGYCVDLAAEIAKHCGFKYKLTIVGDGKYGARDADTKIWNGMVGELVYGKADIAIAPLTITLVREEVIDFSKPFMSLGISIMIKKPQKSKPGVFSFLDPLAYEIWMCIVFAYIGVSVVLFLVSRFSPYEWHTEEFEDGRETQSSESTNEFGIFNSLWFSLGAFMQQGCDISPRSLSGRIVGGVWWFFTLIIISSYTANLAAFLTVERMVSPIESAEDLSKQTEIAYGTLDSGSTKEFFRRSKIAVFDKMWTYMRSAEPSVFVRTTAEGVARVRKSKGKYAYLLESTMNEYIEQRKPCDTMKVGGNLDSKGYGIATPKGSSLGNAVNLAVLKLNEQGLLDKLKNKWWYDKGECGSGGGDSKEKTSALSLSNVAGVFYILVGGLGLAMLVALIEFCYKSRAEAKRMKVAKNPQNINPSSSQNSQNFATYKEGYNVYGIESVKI
HA-GluR6+NAR1 (HA-GluR6 construct in which the corresponding GluR6 sequence has been replaced with NAR1) (P42260, form named): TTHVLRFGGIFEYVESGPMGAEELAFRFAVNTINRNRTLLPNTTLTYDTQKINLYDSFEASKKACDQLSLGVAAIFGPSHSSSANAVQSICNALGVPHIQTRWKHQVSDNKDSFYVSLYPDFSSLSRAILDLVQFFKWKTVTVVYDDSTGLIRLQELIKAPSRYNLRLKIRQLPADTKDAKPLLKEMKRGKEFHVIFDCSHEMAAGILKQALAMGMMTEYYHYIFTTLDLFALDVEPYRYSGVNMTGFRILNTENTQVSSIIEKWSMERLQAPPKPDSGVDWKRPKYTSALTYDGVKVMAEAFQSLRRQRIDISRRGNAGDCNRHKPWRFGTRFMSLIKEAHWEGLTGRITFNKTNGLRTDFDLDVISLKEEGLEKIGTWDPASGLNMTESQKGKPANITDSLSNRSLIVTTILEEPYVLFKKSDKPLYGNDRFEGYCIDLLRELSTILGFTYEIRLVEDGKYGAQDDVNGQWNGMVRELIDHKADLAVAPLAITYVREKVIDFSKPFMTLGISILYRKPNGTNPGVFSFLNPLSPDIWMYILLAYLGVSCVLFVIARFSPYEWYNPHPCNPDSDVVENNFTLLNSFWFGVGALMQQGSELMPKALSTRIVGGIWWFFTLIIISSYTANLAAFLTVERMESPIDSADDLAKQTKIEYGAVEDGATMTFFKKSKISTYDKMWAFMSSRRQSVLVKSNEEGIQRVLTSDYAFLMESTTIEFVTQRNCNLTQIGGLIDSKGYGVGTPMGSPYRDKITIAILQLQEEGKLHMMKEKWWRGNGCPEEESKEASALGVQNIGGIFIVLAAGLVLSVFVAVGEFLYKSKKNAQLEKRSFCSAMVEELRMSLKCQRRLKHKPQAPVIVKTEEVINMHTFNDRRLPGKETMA
GluR1-HA (HA tagged GluR1 of Example 10) (P42261, residues 19-906): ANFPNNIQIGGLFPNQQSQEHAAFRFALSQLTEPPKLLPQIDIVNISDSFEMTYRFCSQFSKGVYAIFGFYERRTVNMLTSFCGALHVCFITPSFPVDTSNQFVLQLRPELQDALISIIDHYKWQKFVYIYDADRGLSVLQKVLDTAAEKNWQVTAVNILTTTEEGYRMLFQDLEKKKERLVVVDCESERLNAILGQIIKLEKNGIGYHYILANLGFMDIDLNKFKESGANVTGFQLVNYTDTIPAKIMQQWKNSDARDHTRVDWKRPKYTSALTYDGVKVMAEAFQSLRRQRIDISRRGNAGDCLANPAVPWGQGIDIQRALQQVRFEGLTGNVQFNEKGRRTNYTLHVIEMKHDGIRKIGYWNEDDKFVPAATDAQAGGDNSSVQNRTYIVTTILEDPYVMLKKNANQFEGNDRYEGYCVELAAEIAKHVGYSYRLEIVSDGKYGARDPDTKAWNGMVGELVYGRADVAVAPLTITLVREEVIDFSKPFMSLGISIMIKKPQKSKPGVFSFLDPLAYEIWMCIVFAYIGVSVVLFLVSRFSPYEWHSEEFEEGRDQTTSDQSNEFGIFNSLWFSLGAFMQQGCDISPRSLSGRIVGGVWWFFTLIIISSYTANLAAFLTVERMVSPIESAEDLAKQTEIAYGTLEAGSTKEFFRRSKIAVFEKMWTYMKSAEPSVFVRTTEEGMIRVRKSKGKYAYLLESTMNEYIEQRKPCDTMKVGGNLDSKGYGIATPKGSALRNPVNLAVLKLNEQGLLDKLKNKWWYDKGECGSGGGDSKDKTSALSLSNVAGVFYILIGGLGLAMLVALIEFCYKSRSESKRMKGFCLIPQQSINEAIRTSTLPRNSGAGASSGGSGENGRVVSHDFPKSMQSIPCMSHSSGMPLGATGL
HA-GluR1ΔNAR2 (HA-GluR1 construct lacking NAR2) (P42261, form named): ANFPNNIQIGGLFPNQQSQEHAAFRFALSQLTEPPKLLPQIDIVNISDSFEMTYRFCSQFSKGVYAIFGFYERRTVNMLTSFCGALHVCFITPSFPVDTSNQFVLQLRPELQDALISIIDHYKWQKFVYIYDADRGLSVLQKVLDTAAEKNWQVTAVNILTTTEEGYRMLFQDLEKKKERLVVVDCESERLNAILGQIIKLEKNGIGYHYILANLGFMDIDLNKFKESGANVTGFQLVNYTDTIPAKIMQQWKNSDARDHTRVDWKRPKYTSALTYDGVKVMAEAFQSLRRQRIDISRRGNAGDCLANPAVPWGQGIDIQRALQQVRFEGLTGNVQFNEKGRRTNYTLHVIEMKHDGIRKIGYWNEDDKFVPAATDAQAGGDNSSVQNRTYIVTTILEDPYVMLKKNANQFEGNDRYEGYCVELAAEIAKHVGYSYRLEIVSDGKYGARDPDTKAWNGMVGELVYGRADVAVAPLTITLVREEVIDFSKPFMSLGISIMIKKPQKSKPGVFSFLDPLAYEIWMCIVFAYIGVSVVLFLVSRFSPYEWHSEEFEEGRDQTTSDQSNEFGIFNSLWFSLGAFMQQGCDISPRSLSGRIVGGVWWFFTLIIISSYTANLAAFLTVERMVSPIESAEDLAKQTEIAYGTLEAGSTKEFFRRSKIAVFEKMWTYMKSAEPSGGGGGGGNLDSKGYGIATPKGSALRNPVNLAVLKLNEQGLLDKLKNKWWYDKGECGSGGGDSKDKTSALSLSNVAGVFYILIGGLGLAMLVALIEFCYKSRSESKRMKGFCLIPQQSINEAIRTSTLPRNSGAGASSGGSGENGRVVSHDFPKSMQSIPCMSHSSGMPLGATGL
UniProt P19490: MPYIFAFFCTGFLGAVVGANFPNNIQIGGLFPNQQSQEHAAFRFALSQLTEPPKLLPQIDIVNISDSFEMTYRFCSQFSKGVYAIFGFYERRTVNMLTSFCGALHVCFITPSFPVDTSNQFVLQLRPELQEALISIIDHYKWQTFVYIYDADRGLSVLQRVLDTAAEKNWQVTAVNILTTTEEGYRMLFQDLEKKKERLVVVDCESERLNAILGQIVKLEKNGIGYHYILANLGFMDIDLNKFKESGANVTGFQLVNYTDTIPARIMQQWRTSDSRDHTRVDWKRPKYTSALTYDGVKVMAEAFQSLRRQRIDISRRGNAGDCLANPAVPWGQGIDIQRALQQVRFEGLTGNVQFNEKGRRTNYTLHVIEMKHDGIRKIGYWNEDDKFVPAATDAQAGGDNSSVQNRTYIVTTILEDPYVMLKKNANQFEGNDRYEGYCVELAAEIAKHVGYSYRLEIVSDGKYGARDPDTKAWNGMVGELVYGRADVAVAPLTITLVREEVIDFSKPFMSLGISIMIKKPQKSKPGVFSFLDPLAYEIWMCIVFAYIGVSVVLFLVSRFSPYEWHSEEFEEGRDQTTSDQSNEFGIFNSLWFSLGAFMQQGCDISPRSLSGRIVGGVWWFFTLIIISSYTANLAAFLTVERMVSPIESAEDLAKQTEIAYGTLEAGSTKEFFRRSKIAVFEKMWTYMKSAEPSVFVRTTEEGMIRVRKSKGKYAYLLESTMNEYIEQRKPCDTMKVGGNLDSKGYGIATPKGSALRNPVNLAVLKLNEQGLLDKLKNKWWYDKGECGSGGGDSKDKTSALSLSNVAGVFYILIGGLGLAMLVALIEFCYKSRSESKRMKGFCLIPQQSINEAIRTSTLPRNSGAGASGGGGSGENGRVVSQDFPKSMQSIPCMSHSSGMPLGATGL

What was measured:
[1] = target: AMPA receptor subunit GluR3 (UniProt P19492); test: co-clustering in co-transfected 293 cells, immunostaining
[2] = target: AMPA receptor subunit GluR2 (UniProt P19491); test: as above
[3] = target: AMPA receptor subunit GluR3 (UniProt P19492); test: co-IP from co-transfected HEK-293 cells; unaffected by 1 mM tunicamycin
[4] = target: AMPA receptor subunit GluR2 (UniProt P19491); test: as above
[5] = target: HA-GluR6+NAR1 (HA-GluR6 construct in which the corresponding GluR6 sequence has been replaced with NAR1) (UniProt P42260); test: co-clustering on the cell surface, immunostaining
[6] = target: HA-GluR1ΔNAR2 (HA-GluR1 construct lacking NAR2) (UniProt P42261); test: co-clustering on the cell surface, immunostaining
[7] = target: HA-GluR6+NAR1 (HA-GluR6 construct in which the corresponding GluR6 sequence has been replaced with NAR1) (UniProt P42260); test: co-IP
[8] = target: GST-NAR2 (GST fusion protein of NAR2 of GluR1, from bacteria) (Rattus norvegicus (Rat)) (UniProt P19490); test: GST pull-down, comparison in words
[9] = target: GST-NAR2 (GST fusion protein of NAR2 of GluR1, from bacteria) (Rattus norvegicus (Rat)) (UniProt P19490); test: GST pull-down; NAR1 bound Narp more avidly than NAR2
[10] = target: GST-NAR1 (GST fusion protein of NAR1 of GluR1, from bacteria) (Rattus norvegicus (Rat)) (UniProt P19490); test: as above
[11] = target: T1, GST-tagged GluR1-12mer (GST-G1-12mer); test: GST pull-down, in vitro binding
T1 sequence: LRRQRIDISRRG

GluR2-HA = GluR2-HA (UniProt P19491); test: co-clustering on COS-7 cells co-transfected with NPR-myc and GluR2-HA after PMA (150 nM); diffuse staining without PMA
[12] = target: GluR1-HA (HA tagged GluR1 of Example 10) (UniProt P42261); test: co-IP from co-transfected HEK293T cells
[13] = target: AMPA receptor subunit GluR2 (UniProt P19491); test: co-clustering on transfected COS-7 cells

Measured: binding

B1: Neuronal activity regulated pentraxin (Narp) (ligand)
chain: QAQDNPIPGSRFVCTALPPEAARAGCPLPAMPMQGGALSPEEELRAAVLHWRETVVQQKETLGAQREAIRELTSKLARCEGLAGGKARGTGATGKDTMGDLPRDPGHVVEQLSRSLQTLKDRLESLELQLHTNASNAGLPSDFREVLQRRLGELERQLLRKVAELEDEKSLLHNETSAHRQKTENTLNALLQRVTELERGNSAFKSPDAFKVSLPLRTNYLYGKIKKTLPELYAFTICLWLRSSASPGIGTPFSYAVPGQANEIVLIEWGNNPIELLINDKVAQLPLFVSDGKWHHICITWTTRDGMWEAFQDGEKLGTGENLAPWHPIKPGGVLILGQEQDTVGGRFDATQAFVGELSQFNIWDRVLRAQEIINIANCSTNMPGNIIPWVDNNVDVFGGASKWPVETCEERLLDL
binds: [1] | [2] | [3] | [4] | [5] | [6] | [7]

B2: C-terminal myc-tagged version of Narp (myc-Narp) (ligand, not shown: small tags and cut ends)
chain: QAQDNPIPGSRFVCTALPPEAARAGCPLPAMPMQGGALSPEEELRAAVLHWRETVVQQKETLGAQREAIRELTSKLARCEGLAGGKARGTGATGKDTMGDLPRDPGHVVEQLSRSLQTLKDRLESLELQLHTNASNAGLPSDFREVLQRRLGELERQLLRKVAELEDEKSLLHNETSAHRQKTENTLNALLQRVTELERGNSAFKSPDAFKVSLPLRTNYLYGKIKKTLPELYAFTICLWLRSSASPGIGTPFSYAVPGQANEIVLIEWGNNPIELLINDKVAQLPLFVSDGKWHHICITWTTRDGMWEAFQDGEKLGTGENLAPWHPIKPGGVLILGQEQDTVGGRFDATQAFVGELSQFNIWDRVLRAQEIINIANCSTNMPGNIIPWVDNNVDVFGGASKWPVETCEERLLDL
binds: [8] | [9] | [10] | [11]

B3: myc-tagged NPR (NPR-myc) (receptor, rat, UniProt O35764 1-494, looked up, not shown: small tags and cut ends)
chain: MKFLAVLLAAGMLAFLGAVICIIASVPLAASPARALPGGTDNASAASAAGAPGPQRSLSALQGAGGSAGPSVLPGEPAASVFPPPPGPLLSRFLCTPLAAACPSGAEQGDAAGERAELLLLQSTAEQLRQTALQQEARIRADRDTIRELTGKLGRCESGLPRGLQDAGPRRDTMADGAWDSPALLVELENAVRALRDRIERIEQELPARGNLSSSAPAPAVPTALHSKMDELEGQLLAKVLALEKERAALSHGSHQQRQEVEKELDALQGRVAELEHGSSAYSPPDAFKVSIPIRNNYMYARVRKAVPELYAFTACMWLRSRSGGSGQGTPFSYSVPGQANEIVLLEAGLEPMELLINDKVAQLPLSLKDSNWHHICIAWTTRDGLWSAYQDGELRGSGENLAAWHPIKPHGILILGQEQDTLGGRFDATQAFVGDIAQFNLWDHALTPAQVLGIANCTGPLMGNVLPWEDKLVEAFGGAKKAAFDVCKRRAKA
binds: GluR2-HA | [12]

B4: CM-3, Narp/NPR chimera in which the transmembrane domain of NPR is replaced with the signal peptide of Narp (protein, rat, UniProt O35764 24-494, looked up, not shown: small tags and cut ends)
chain: ASVPLAASPARALPGGTDNASAASAAGAPGPQRSLSALQGAGGSAGPSVLPGEPAASVFPPPPGPLLSRFLCTPLAAACPSGAEQGDAAGERAELLLLQSTAEQLRQTALQQEARIRADRDTIRELTGKLGRCESGLPRGLQDAGPRRDTMADGAWDSPALLVELENAVRALRDRIERIEQELPARGNLSSSAPAPAVPTALHSKMDELEGQLLAKVLALEKERAALSHGSHQQRQEVEKELDALQGRVAELEHGSSAYSPPDAFKVSIPIRNNYMYARVRKAVPELYAFTACMWLRSRSGGSGQGTPFSYSVPGQANEIVLLEAGLEPMELLINDKVAQLPLSLKDSNWHHICIAWTTRDGLWSAYQDGELRGSGENLAAWHPIKPHGILILGQEQDTLGGRFDATQAFVGDIAQFNLWDHALTPAQVLGIANCTGPLMGNVLPWEDKLVEAFGGAKKAAFDVCKRRAKA
binds: [13]
